At least one compound was matched to its structure with a doubt left.
System: antibody of the present invention
Test: Interference from other drugs, homogeneous enzyme immunoassay
Type: binding, rabbit
Details: chemical at 10.0 μg/ml urine; cutoff 5.0 μg Atenolol per ml of urine; tested three times
Method: Samples were checked for turbidity and growth. A homogeneous enzyme immunoassay was carried out on an Olympus AU-5200 analyzer using the following assay parameters:
Reagent 1 is comprised of a titer of 1–500 dilution of an antibody of the present invention, 11.25 mM NAD+, 11.25 mM G6P, 0.1% w/v sodium azide and 100 mM Tris.
Reagent 2 is comprised of a titer of 1–2000 dilution of a G6PDH-beta blocker conjugate, 0.1% w/v sodium azide, and 50 mM Tris.
A homogenous calibrator containing sodium azide was used to calibrate the analyzer prior to each run.
The analytical cutoff for the test was set at 5.0 μg Atenolol per ml of urine. The result was scored as a positive if the signal strength was greater than that produced by 5.0 μg Atenolol per ml of urine.
Interference from other drugs was tested using fifty-five (55) frequently used chemicals and medicines, at concentrations of 10.0 μg/ml urine.
The samples were tested three times, following the procedures used in Example 3.

Compound | Beta-Blocker Pos./Neg.
CNC1=Nc2ccc(Cl)cc2C(c2ccccc2)=[N+]([O-])C1 [Chlordiazepoxide] | Neg. (scored as a positive if the signal strength was greater than that produced by 5.0 μg Atenolol per ml of urine)
COC(=O)[C@H]1[C@@H](OC(=O)c2ccccc2)C[C@@H]2CC[C@H]1N2C [Cocaine] | Neg. (scored as a positive if the signal strength was greater than that produced by 5.0 μg Atenolol per ml of urine)
CCC1(c2ccccc2)C(=O)NC(=O)NC1=O [Phenobarbital] | Neg. (scored as a positive if the signal strength was greater than that produced by 5.0 μg Atenolol per ml of urine)
